# Data taken from the supplement of paper PMC3334620.
# Over roughly 33,000 sequences, “E-score (-0.5 to 0.5)” has its median near -0.016; the highest 2% begin near 0.3. This is one part of the list.
# Target: T1, Yer184c (UniProt P39961)
# T1 sequence: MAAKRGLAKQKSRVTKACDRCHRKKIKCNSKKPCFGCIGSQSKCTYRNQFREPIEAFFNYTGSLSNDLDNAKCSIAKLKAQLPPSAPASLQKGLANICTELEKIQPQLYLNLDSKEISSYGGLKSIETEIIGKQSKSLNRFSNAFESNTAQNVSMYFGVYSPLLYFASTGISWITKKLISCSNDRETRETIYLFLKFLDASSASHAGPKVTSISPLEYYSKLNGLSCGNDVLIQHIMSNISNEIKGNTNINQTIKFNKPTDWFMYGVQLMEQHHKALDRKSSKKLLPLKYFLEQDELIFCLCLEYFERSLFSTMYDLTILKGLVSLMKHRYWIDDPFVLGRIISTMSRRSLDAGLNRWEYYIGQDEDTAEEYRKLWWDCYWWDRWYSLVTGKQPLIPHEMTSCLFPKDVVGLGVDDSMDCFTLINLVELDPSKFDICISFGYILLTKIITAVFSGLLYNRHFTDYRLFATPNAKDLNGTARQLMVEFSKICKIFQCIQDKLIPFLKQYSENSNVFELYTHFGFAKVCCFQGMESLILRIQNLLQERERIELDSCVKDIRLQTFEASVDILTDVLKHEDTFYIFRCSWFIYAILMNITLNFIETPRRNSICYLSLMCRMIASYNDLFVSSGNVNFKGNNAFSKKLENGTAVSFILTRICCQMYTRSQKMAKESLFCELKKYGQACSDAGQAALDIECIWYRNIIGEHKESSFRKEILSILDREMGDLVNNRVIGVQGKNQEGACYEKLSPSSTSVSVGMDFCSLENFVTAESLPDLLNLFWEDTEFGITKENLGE
# Test: PBM E-score (8-mer binding enrichment) (E-score (-0.5 to 0.5)); higher = stronger / more preferred TF binding
# Settings: protein concentration: 100 nM; construct: GST-full length
# Experimental: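 Universal 'all 10-mer' protein binding microarrays (Agilent AMADID 015681) probed with GST-tagged S. cerevisiae TFs (full-length or DBD) made by in vitro transcription/translation (PURExpress), about 100-200 nM. Bound TF was detected with fluorescent anti-GST. Each ungapped 8-mer (which stands for itself and its reverse complement) is scored by the PBM enrichment score (E-score), a modified Wilcoxon-Mann-Whitney statistic from -0.5 to +0.5, computed with the Universal PBM Analysis Suite. Scale: above 0.35 generally sequence-specific binding.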
row,Sequence,PBM E-score
1,ATCGGCAC,0.27
2,CCCCGCGC,-0.135
3,GCCCGGGA,0.282
4,ATAAATTC,0.203
5,AACAAGGT,-0.0263
6,AAGTCTAC,-0.224
7,CCGCACTC,0.0103
8,CAGGCTAC,-0.143
9,CGCATATC,0.145
10,CTGGTCAC,-0.229
11,CCACACCC,-0.124
12,CATGATCG,0.05
13,GCCCCAGA,-0.205
14,TACTCCCA,0.107
15,CGGCTAGA,0.306
16,ACCGGACA,0.122
17,AGGAGTTG,-0.00901
18,CAAAGCCC,-0.127
19,ACGTGGAC,-0.164
20,AAGCATAT,0.125
21,AACCTTCA,-0.191
22,AGCCTACC,-0.149
23,GCAATAAA,0.247
24,CGTGTCGA,-0.0581
25,AATATACG,-0.262

row,Sequence,PBM E-score
1,CATAACTC,0.00676
2,CAGGCAAC,-0.128
3,ATAATGTG,0.0676
4,CGTATAAG,-0.0423
5,ATCTGACG,-0.251
6,ACGACAGC,-0.0485
7,AATAGATT,0.151
8,CGATTAAG,0.00842
9,CACCCTAG,-0.0649
10,AATGTGGC,-0.152
11,AAGATACT,0.0505
12,ACCCTCAG,-0.189
13,GCGAGCGA,0.0129
14,ATCGCATG,-0.00236
15,CAACGAAA,0.188
16,ACGGGAGG,-0.176
17,GTTAATCA,0.234
18,ATTAGGAC,-0.0657
19,TCTTACAA,-0.0372
20,CCAAGTTC,-0.141
21,GTGTTCCA,-0.0649
22,GCCGCTCA,-0.0363
23,GTAAACTA,0.185
24,GCACCAGC,-0.192
25,CGGCCCTA,0.125

row,Sequence,PBM E-score
1,ATCCAGAC,0.14
2,GCACCAAA,-0.0822
3,CTTAGTAC,-0.0475
4,AGAGGTGA,-0.148
5,AGTCAACG,-0.136
6,AGTTAATC,0.00661
7,ATGGAACG,0.00149
8,GAAAACAC,0.163
9,AGTTGCGG,0.154
10,ACGCCCTA,-0.255
11,AGCCGTGA,0.16
12,ACAGTTAA,0.125
13,GACGCAAC,0.0713
14,AAGTCCAT,-0.193
15,ACAAGGTC,-0.234
16,ATCCATCC,0.16
17,GTAAGCCA,-0.257
18,CATCATGC,-0.0578
19,AAGCGGAA,0.211
20,ATTTCTTG,0.216
21,CATTATGC,-0.0504
22,AGTGAAAC,-0.0495
23,CCCATATA,-0.0191
24,GGGACACA,0.00539
25,CCCATCCG,-0.0892

row,Sequence,PBM E-score
1,ATATTCTC,0.0873
2,CATATGAC,0.0268
3,GAGTTACA,0.108
4,GCACTTCA,0.0823
5,TCTGAAAA,0.0749
6,CATATAAA,0.0973
7,GAGCCACC,-0.152
8,ATGCAAAA,0.224
9,CATCACCG,-0.0829
10,CGGATCTC,0.147
11,CCTCGAAC,-0.114
12,CTCTCGGA,0.278
13,CGGTGAGC,-0.157
14,ATAGTGTC,0.0385
15,CGCAAGTA,0.0344
16,CCGCTCGA,-0.00989
17,AACCGAAC,0.177
18,CCTGTCTA,-0.162
19,AGTTCACG,-0.0529
20,CCTGGCGC,-0.0184
21,CCGACAAA,0.275
22,CCGAGAAG,0.193
23,CAACTCCC,0.0639
24,CGCTTCGC,-0.0541
25,AAGTTCAC,0.019

row,Sequence,PBM E-score
1,AACCCAAT,0.00121
2,CAACCCAC,-0.141
3,CCCTGTAC,-0.286
4,AATGGACA,0.134
5,TGTTATAA,0.259
6,GCGGAGAA,0.114
7,AGCTAGTG,-0.222
8,GTTAAGAA,0.0326
9,ATTCACGG,0.277
10,CCTCGTGA,-0.00103
11,ACCCCAGC,-0.113
12,CCCGACAG,-0.027
13,ATTACGAA,0.168
14,ACGCAAAC,0.0183
15,CGGCATAG,0.2
16,TATTTTAA,0.235
17,CCCATCAG,-0.304
18,AGGCCGGC,0.265
19,CCCGTTAG,-0.167
20,ATATGAAT,0.156
21,ATGAACTA,0.0664
22,GATGGTGC,-0.351
23,AGGTGCTA,-0.032
24,ATACGTGA,0.0288
25,CCCAGCCA,-0.0678

row,Sequence,PBM E-score
1,ATGTCTAG,0.179
2,CCTCGGTA,-0.0209
3,ACGTCTTC,-0.0691
4,CGCGTTAG,0.127
5,ACCTATGC,-0.248
6,CGGTGTAG,-0.089
7,ATAGTACA,0.083
8,CCATTCTC,-0.00493
9,AGCTGCGC,-0.0697
10,TAAATCTA,0.0882
11,AGGGAAGG,-0.344
12,ACTTGCGC,-0.0539
13,AAGCATCA,-0.0222
14,ACCACTTC,-0.122
15,AACGCAAT,0.182
16,TCTCAAGA,-0.0209
17,GTCTTGGA,-0.154
18,CGTATGGC,0.0401
19,AAGAGTAC,-0.00139
20,CCGCGCCC,-0.109
21,AATAGAGC,0.0757
22,GGCCCGGA,0.301
23,GCTCCCGA,-0.0688
24,CGAGGTCA,-0.0958
25,CAAAATCA,0.0587

row,Sequence,PBM E-score
1,CACGGAAG,0.149
2,GAGCGCGA,0.0441
3,AACGTAGC,-0.185
4,ATGACTTA,-0.016
5,GCTGCTCC,-0.0809
6,ACCCTTCT,-0.267
7,TCCGCTAA,0.0916
8,CGCCGTCA,-0.0816
9,CGCTGTAC,-0.117
10,ACATGGGC,-0.0112
11,TCGCTGCA,-0.0505
12,CTGGATTA,0.151
13,TTACACAA,0.233
14,CTGTAGAC,-0.0558
15,ATACTCGA,-0.0376
16,CGCGCGCG,0.148
17,AAGACCGC,-0.0823
18,ACCAACTA,-0.0397
19,TCCGGAGA,0.397
20,CATCATCG,-0.0011
21,CCACCTAG,-0.247
22,GCTGGGCA,0.144

# Copied from the entries so far for reference:
row,Sequence,PBM E-score
1,ATGTCTAG,0.179
2,CCTCGGTA,-0.0209
3,ACGTCTTC,-0.0691
4,CGCGTTAG,0.127
5,ACCTATGC,-0.248
6,CGGTGTAG,-0.089
7,ATAGTACA,0.083
8,CCATTCTC,-0.00493
9,AGCTGCGC,-0.0697
10,TAAATCTA,0.0882
11,AGGGAAGG,-0.344
12,ACTTGCGC,-0.0539
13,AAGCATCA,-0.0222
14,ACCACTTC,-0.122
15,AACGCAAT,0.182
16,TCTCAAGA,-0.0209
17,GTCTTGGA,-0.154
18,CGTATGGC,0.0401
19,AAGAGTAC,-0.00139
20,CCGCGCCC,-0.109
21,AATAGAGC,0.0757
22,GGCCCGGA,0.301
23,GCTCCCGA,-0.0688
24,CGAGGTCA,-0.0958
25,CAAAATCA,0.0587
1,CACGGAAG,0.149
2,GAGCGCGA,0.0441
3,AACGTAGC,-0.185
4,ATGACTTA,-0.016
5,GCTGCTCC,-0.0809
6,ACCCTTCT,-0.267
7,TCCGCTAA,0.0916
8,CGCCGTCA,-0.0816
9,CGCTGTAC,-0.117
10,ACATGGGC,-0.0112
11,TCGCTGCA,-0.0505
12,CTGGATTA,0.151
13,TTACACAA,0.233
14,CTGTAGAC,-0.0558
15,ATACTCGA,-0.0376
16,CGCGCGCG,0.148
17,AAGACCGC,-0.0823
18,ACCAACTA,-0.0397
19,TCCGGAGA,0.397
20,CATCATCG,-0.0011
